Measurements from publication PMC4832077.
Results are given in words; binding and its absence hold for the method and conditions named. In cells and extracts the contact can be indirect. Binding can be weak; no strength is given.

Molecular target: T1, podoplanin (PDPN) expressed in lymphatic endothelial cells (human (endogenous in primary LECs)) (UniProt Q86YL7)
T1 sequence (chain, carries α2,3-sialylated glycans (bound by MAA II)): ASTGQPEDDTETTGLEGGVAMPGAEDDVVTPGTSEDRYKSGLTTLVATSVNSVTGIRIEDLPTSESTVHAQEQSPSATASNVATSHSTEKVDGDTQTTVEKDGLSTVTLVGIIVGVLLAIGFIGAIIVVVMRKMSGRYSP
Test: co-IP; anti-PDPN (clone E-1) on AminoLink Plus resin; lysates of serum-starved primary LECs, untreated or treated with galectin-8 for 15 min at 37 °C; IP buffer 25 mM Tris, 150 mM NaCl, 1 mM EDTA, 1% NP-40, 5% glycerol, pH 7.4; 4 °C overnight; western blot

binding	Substance
binds	integrin α5 (human (endogenous in primary LECs)) (receptor)
binds	integrin αv (human (endogenous in primary LECs)) (receptor)
